Where “and” joins values, the source holds several entries; their conditions need not be identical. Equal values may be shown once. In all, about 580,000 compounds went through this assay and about 6,100 (1.1%) were called active. The shares of active, inactive and inconclusive entries below differ from those in the screen. Calls follow the shape of the dose curve; as a rule, active = well fitted inhibition curve with a large enough effect; inconclusive = small, poorly fitted or top-dose-only effect, or another doubt; inactive = no such curve, though single readings can be large or run the other way. Where the call is inconclusive, the potency comes from a doubtful curve fit.
These compounds were tested against Polyunsaturated fatty acid lipoxygenase ALOX12 (Homo sapiens) (UniProt P18054) (assay: Primary qHTS assay for inhibitors of human arachidonate 12S-lipoxygenase (ALOX12): Round 2). Settings: purified 12hLO, xylenol orange hydroperoxide absorbance; activity change, negative = inhibition: at 108 µM (top of the series) unless noted.
Outline: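 Purified human 12hLO (150 nM final) in 25 mM Hepes, 0.01% Triton X-100, pH 7.0 was preincubated 15 min at room temperature with compound. Then 40 uM arachidonic acid was added, 30 min. Hydroperoxide was read by Fe-XO absorbance ratio 573/405 nm.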
% is scaled to controls: 0 for no effect and ±100 for the full control effect; potency is read from the fitted curve at half-maximal effect.

Amino acid sequences for entries named in this document (tags omitted). A change or cut given only in a name is not applied to a line headed by its entry.
UniProt P18054: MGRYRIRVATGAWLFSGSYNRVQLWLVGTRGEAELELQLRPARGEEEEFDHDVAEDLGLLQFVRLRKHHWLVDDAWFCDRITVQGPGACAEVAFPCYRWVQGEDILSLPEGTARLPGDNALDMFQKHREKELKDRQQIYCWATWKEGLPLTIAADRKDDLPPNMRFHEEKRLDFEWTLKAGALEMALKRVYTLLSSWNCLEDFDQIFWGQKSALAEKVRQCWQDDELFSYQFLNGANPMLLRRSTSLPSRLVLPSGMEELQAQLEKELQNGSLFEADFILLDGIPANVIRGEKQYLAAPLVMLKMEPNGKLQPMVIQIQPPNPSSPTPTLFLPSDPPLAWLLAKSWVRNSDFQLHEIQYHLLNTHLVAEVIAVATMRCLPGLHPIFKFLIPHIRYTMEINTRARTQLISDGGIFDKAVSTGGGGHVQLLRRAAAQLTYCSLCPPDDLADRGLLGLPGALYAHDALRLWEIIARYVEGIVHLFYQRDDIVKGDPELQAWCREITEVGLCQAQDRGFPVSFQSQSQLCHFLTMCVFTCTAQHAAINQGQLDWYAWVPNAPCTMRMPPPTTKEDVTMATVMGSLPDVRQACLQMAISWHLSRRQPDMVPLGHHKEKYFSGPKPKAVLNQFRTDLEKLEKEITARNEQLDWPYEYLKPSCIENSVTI

Question: For `Brc1ccc(-c2noc(-c3ccccc3)n2)cc1`, which “activity change, negative = inhibition” value is on record?
Answer: Its value is inactive: -4.34%.

Question: `COc1cccc(C(=O)N(Cc2ccc(N(C)C)cc2)C2CCS(=O)(=O)C2)c1` (configuration not stated) was tested. Which Potency did it give?
Answer: The Potency was inconclusive: 0.447 µM [inhibitor, full curve, poor fit].

Question: `O=C(c1cccc(C(F)(F)F)c1)N1CCOC12CCN(c1ncc(C(F)(F)F)cc1Cl)CC2` was tested. Which “activity change, negative = inhibition” value did it give?
Answer: The value was inactive: 20.8%.

Question: `Cc1cccc(/C(N)=N/OC(=O)c2ccc3c(c2)OCO3)c1` was tested. Which “activity change, negative = inhibition” value did it give?
Answer: The value was inactive: -17.8%.

Question: How did the “activity change, negative = inhibition” value turn out when `c1coc(-c2ncc[nH]2)c1` was run?
Answer: The value was inactive: 0%.

Question: With `CS(=O)(=O)N1CCC(Oc2ccccc2C(=O)N2CCN(CC3CC3)CC2)CC1` as the compound, how does the Potency read?
Answer: The Potency was inconclusive: 35.5 µM [inhibitor, partial curve, poor fit].

Question: For `Cc1ccc(C(C)(C)C)cc1S(=O)(=O)Nc1nc2ccccc2nc1Cl`, which Potency is on record?
Answer: Its Potency is inconclusive: 44.7 µM [inhibitor, partial curve, poor fit].

Question: For `CCOC(=O)c1c(C)c(-c2ccccc2)n(CC(=O)Nc2ccc(OC)cc2OC)c1C`, which “activity change, negative = inhibition” value is on record?
Answer: Its value is inactive: -1.27%.

Question: Which Potency does the source give for `O=C(O)CCCCCN1C(=O)/C(=C/c2cn(-c3ccccc3)nc2-c2cccs2)SC1=S` here?
Answer: The Potency was inconclusive: 39.8 µM [inhibitor, partial curve, poor fit].

Question: With `CCOc1cc(NC(=S)NCCOC)c(OCC)cc1NC(=O)c1ccco1` as the compound, how does the Potency read?
Answer: The Potency was inconclusive: 50.1 µM [inhibitor, partial curve, poor fit].

Question: How did the Potency turn out when `COC(=O)[C@H](CCSC)NC(=O)NC1CC1` was run?
Answer: Its Potency is inconclusive: 126 µM [inhibitor, single point].

Question: `CN(C)c1ncc2nc(CCc3ccccc3)c(=O)n(Cc3cccs3)c2n1` was tested. Which Potency did it give?
Answer: The Potency was inconclusive: 50.1 µM [inhibitor, partial curve, poor fit].

Question: With `Cc1cc(Cl)ccc1NC(=O)CSc1ncnc2ccccc12` as the compound, how does the Potency read?
Answer: The Potency was inconclusive: 63.1 µM [inhibitor, partial curve, poor fit].

Question: How did the “activity change, negative = inhibition” value turn out when `c1ccc(CNCc2cccc(Oc3nnnn3-c3ccccc3)c2)cc1` was run?
Answer: Its value is inactive: -12.2%.

Question: How did the “activity change, negative = inhibition” value turn out when `Cc1cc(S(=O)(=O)NCc2ccccc2)ccc1OCC(=O)NCc1ccccn1` was run?
Answer: The value was inactive: 48.8%.

Question: With `Cc1cccc(NC(=O)Cn2nc(-c3ccccc3)c3c(c2=O)CCCC3)c1C` as the compound, how does the “activity change, negative = inhibition” value read?
Answer: The value was inactive: -10.9%.

Question: With `COc1ccc2c(c1)-c1nc(NC(=O)c3ccccc3F)sc1CC2` as the compound, how does the Potency read?
Answer: Its Potency is inconclusive: 50.1 µM [inhibitor, partial curve, poor fit].

Question: Which Potency does the source give for `CS(=O)(=O)N1CCN(C(=O)N2CCOCC2)[C@@H](C(=O)N[C@@H](CC2CCCCC2)C(N)=O)C1` here?
Answer: Its Potency is inconclusive: 2.82 µM [inhibitor, full curve, poor fit].

Question: Which Potency does the source give for `Cc1cc(C)n(-c2nc3ccccc3nc2Nc2cccc(F)c2)n1` here?
Answer: The Potency was inconclusive: 158 µM [inhibitor, single point].

Question: With `O=C1NC2c3c(Cl)sc(Cl)c3C(=O)C2O1` (configuration not stated) as the compound, how does the Potency read?
Answer: Its Potency is active: 39.8 µM.

Question: For `CCn1c(=O)cc(OCC(=O)NCc2ccccc2Cl)c2ccccc21`, which “activity change, negative = inhibition” value is on record?
Answer: The value was inactive: -23.6%.

Question: With `CC(=O)c1cc(C(C)(C)C)c(O)c(C(C)(C)C)c1` as the compound, how does the Potency read?
Answer: The Potency was inconclusive: 3.16 µM [inhibitor, full curve, poor fit].

Question: `COc1ccc(CCNC2CCc3ccccc3C2)cc1` (configuration not stated) was tested. Which Potency did it give?
Answer: The Potency was inconclusive: 89.1 µM [inhibitor, single point].

Question: With `CCCCNc1c(-c2cc3ccccc3o2)nc2nc(C)cc(C)n12` as the compound, how does the Potency read?
Answer: Its Potency is inconclusive: 100 µM [inhibitor, single point].

Question: With `COc1ccc(-n2cc(CN3CCCC(CO)C3)c(-c3cccc(F)c3)n2)cc1` (configuration not stated) as the compound, how does the “activity change, negative = inhibition” value read?
Answer: The value was inactive: -0.564%.

Question: For `Cc1ccc(CNC(=O)c2nc(-c3ccc(Cl)cc3)n3c2CCCCC3)cc1`, which Potency is on record?
Answer: The Potency was inconclusive: 25.1 µM [inhibitor, partial curve].

Question: For `CC(C)CC(c1nnnn1C(C)C)N1CCN(C(=O)c2ccco2)CC1` (configuration not stated), which Potency is on record?
Answer: Its Potency is inconclusive: 44.7 µM [inhibitor, partial curve, poor fit].

Question: How did the “activity change, negative = inhibition” value turn out when `Cc1cccc(CN2C[C@@H](F)[C@@H](OCc3nc4ccccc4n3C)C2)n1` was run?
Answer: Its value is inactive: 37.5% [at 176 µM].

Question: For `Cc1cc(C)c(NC2=CC(=O)CC(C)(C)C2)c(C#N)c1`, which Potency is on record?
Answer: The Potency was inconclusive: 14.1 µM [inhibitor, full curve, poor fit].

Question: How did the “activity change, negative = inhibition” value turn out when `CCc1ccccc1NC(=O)CN(c1ccc(C)c(C)c1)S(=O)(=O)c1ccsc1C(=O)OC` was run?
Answer: Its value is inactive: -3.56%.

Question: Which “activity change, negative = inhibition” value does the source give for `O=C(c1ccccc1)N1CCN(C(=O)c2n[nH]c(=O)c3ccccc23)CC1` here?
Answer: The value was inactive: -0.669%.

Question: For `CCOC(=O)c1csc(NC(=O)c2ccc(C#N)cc2)n1`, which Potency is on record?
Answer: Its Potency is inconclusive: 10 µM [inhibitor, partial curve, poor fit].

Question: How did the “activity change, negative = inhibition” value turn out when `Cc1ccc(C)c(N2CCN(C(C(=O)NC3CCCC3)C(C)C)CC2)c1` (configuration not stated) was run?
Answer: Its value is inactive: -9.57%.

Question: How did the “activity change, negative = inhibition” value turn out when `CC(=O)c1ccc(OCCCC(=O)Nc2ccc(Cl)c(S(=O)(=O)N3CCOCC3)c2)cc1` was run?
Answer: Its value is inactive: 29.8%.

Question: How did the “activity change, negative = inhibition” value turn out when `CCCn1c(=O)c2sccc2n2c(CCCC(=O)Nc3ccccc3OCC)nnc12` was run?
Answer: The value was inactive: 0%.

Question: How did the Potency turn out when `COc1ccc2nc3sc(C(=O)O)cc3cc2c1` was run?
Answer: Its Potency is inconclusive: 7.08 µM [inhibitor, full curve].

Question: With `N#CC1=C(N)OC2=C(C(=O)CCC2)C1c1ccc(-c2ccccc2)o1` (configuration not stated) as the compound, how does the Potency read?
Answer: Its Potency is inconclusive: 35.5 µM [inhibitor, partial curve, poor fit].

Question: With `COC(=O)Cc1ccc(NC(=S)NCCSc2ccc(C)cc2)cc1` as the compound, how does the Potency read?
Answer: The Potency was active: 44.7 µM.

Question: Which “activity change, negative = inhibition” value does the source give for `CCC(=O)Nc1ccc(-c2nn3c(C)nnc3s2)cc1C` here?
Answer: Its value is inactive: 0%.

Question: Which Potency does the source give for `Cc1ccc(CN(C(=O)COc2ccc(C(C)C)cc2)C2CCS(=O)(=O)C2)o1` (configuration not stated) here?
Answer: Its Potency is inconclusive: 112 µM [inhibitor, partial curve, poor fit].

Question: How did the Potency turn out when `Cc1cccc(NC(=O)c2nc[nH]c2C(=O)N[C@@H](C)c2ccccc2)c1` was run?
Answer: The Potency was inconclusive: 89.1 µM [inhibitor, single point].

Question: `O=[N+]([O-])c1ccc(CN2CCN(c3ccccc3)CC2)o1` was tested. Which Potency did it give?
Answer: The Potency was inconclusive: 0.562 µM [inhibitor, full curve].

Question: Which “activity change, negative = inhibition” value does the source give for `CCCCCCSc1ccc(-c2nc3cnccn3c2NCCCC)cc1` here?
Answer: The value was inactive: -2.55%.

Question: For `CC(=O)Nc1cccc(NC(=O)Cc2ccc3ccccc3c2)c1`, which Potency is on record?
Answer: The Potency was inconclusive: 1.58 µM [inhibitor, full curve, poor fit].

Question: Which Potency does the source give for `CCOc1ccc(-c2nn(-c3ccccc3)cc2C2NC(=O)NC(C)=C2C(=O)OC)cc1` (configuration not stated) here?
Answer: Its Potency is inconclusive: 1.12 µM [inhibitor, full curve, poor fit].

Question: `COc1ccc(Cc2c(-c3ccc(OC)c(OC)c3)nc3ccc(C)cn23)c(C)c1` was tested. Which Potency did it give?
Answer: The Potency was inconclusive: 25.1 µM [inhibitor, full curve].

Question: For `CCCC(=O)NC(c1cccs1)c1cc([N+](=O)[O-])c2cccnc2c1O` (configuration not stated), which Potency is on record?
Answer: The Potency was active: 17.8 µM.

Question: Which Potency does the source give for `CCCCNc1nc(Oc2ccc(OCCC)nn2)nc(N(C)C)n1` here?
Answer: Its Potency is inconclusive: 141 µM [inhibitor, partial curve, poor fit].

Question: For `N#CC1=C(N)Oc2n[nH]c(-c3cccs3)c2C1c1ccco1` (configuration not stated), which Potency is on record?
Answer: Its Potency is inconclusive: 79.4 µM [inhibitor, partial curve, poor fit].

Question: With `CCn1nc(C(=O)OC(C)C(=O)NCc2ccco2)c2ccccc2c1=O` (configuration not stated) as the compound, how does the Potency read?
Answer: The Potency was inconclusive: 28.2 µM [inhibitor, partial curve, poor fit].

Question: Which “activity change, negative = inhibition” value does the source give for `COCCCNCCOCCSc1ccc(Cl)cc1` here?
Answer: Its value is inactive: -27.7%.

Question: Which Potency does the source give for `COc1ccc(S(=O)(=O)N2CCC3(CC2)OCCN3S(=O)(=O)c2ccccc2)cc1OC` here?
Answer: The Potency was inconclusive: 39.8 µM [inhibitor, partial curve, poor fit].

Question: `Cc1cc(-c2cc(NC(=O)Cc3c[nH]c4ccccc34)ccc2Nc2cccnc2)ccc1F` was tested. Which “activity change, negative = inhibition” value did it give?
Answer: Its value is inactive: -7.19%.

Question: `CC(C)c1[nH]nc2c1C(c1ccc(Br)cc1)NC2=O` (configuration not stated) was tested. Which Potency did it give?
Answer: Its Potency is inconclusive: 89.1 µM [inhibitor, single point].

Question: Which Potency does the source give for `Cc1cc(C)c2nc(N(CCCN(C)C)C(=O)c3ccc(S(=O)(=O)N4CC(C)OC(C)C4)cc3)sc2c1` (configuration not stated) here?
Answer: The Potency was inconclusive: 89.1 µM [inhibitor, single point].

Question: With `COc1ccccc1-n1c(=O)c2c3c(sc2n2c(=S)[nH]nc12)CCC3` as the compound, how does the Potency read?
Answer: The Potency was inconclusive: 39.8 µM [inhibitor, partial curve].

Question: Which Potency does the source give for `CCOC(=O)c1sc(=S)[nH]c1C` here?
Answer: Its Potency is inconclusive: 50.1 µM [inhibitor, partial curve, poor fit].

Question: Which Potency does the source give for `CC(=O)NC(NC(=S)Nc1ccc(C)cc1C)C(Cl)(Cl)Cl` (configuration not stated) here?
Answer: The Potency was inconclusive: 0.562 µM [inhibitor, partial curve, poor fit].

Question: For `CCCCn1c(N)c(N(CC(C)C)C(=O)c2ccc(N3C(=O)c4ccccc4C3=O)cc2)c(=O)[nH]c1=O`, which Potency is on record?
Answer: The Potency was inconclusive: 141 µM [inhibitor, partial curve, poor fit].

Question: `Cc1ccc(C)c(C(=O)c2sc(Nc3ccc(F)cc3)nc2N)c1` was tested. Which Potency did it give?
Answer: Its Potency is inconclusive: 28.2 µM [inhibitor, single point].

Question: Which Potency does the source give for `COc1ccc(-c2nc3ccccc3o2)cc1NC(=O)CSc1ccc(Cl)cc1` here?
Answer: The Potency was “inactive and inconclusive: 44.7 µM [inhibitor, partial curve]”.

Question: How did the Potency turn out when `Cc1ccc(OCC(=O)Nc2ccc(N3CCCC3)cc2)cc1C` was run?
Answer: The Potency was inconclusive: 141 µM [inhibitor, partial curve, poor fit].

Question: How did the Potency turn out when `Cc1cc(C)c(S(=O)(=O)NN=C2c3ccccc3[C@H]3Cc4csc[n+]4[C@@H]23)c(C)c1` was run?
Answer: The Potency was inconclusive: 31.6 µM [inhibitor, partial curve, poor fit].

Question: Which Potency does the source give for `CCS(=O)(=O)NCC1(COc2ccc(C(F)(F)F)cn2)C[C@@H](O)[C@@H](O)C1` (some centres not stated) here?
Answer: The Potency was active: 12.6 µM.

Question: `CCOc1ccccc1NC(=O)c1sc2nc(-c3ccc(OC)cc3)ccc2c1N` was tested. Which “activity change, negative = inhibition” value did it give?
Answer: The value was inactive: -18.4%.

Question: How did the Potency turn out when `Cn1c(=O)c2cc(NC(=S)NCc3ccccc3F)ccc2n1Cc1ccc(F)cc1` was run?
Answer: Its Potency is inconclusive: 44.7 µM [inhibitor, partial curve, poor fit].

Question: For `COc1ccc(Br)cc1C(=O)Nc1ccccc1N1CCCC1`, which Potency is on record?
Answer: The Potency was inconclusive: 112 µM [inhibitor, single point].

Reference: PubChem BioAssay AID1671190 (National Center for Advancing Translational Sciences (NCATS), 2021)
